Where no end group is shown, it is not given here.
Test system: sheep red blood cells (RBCs)
Assay: Hemolysis assay
Conditions: therapeutic index, MBC50 against E. coli

| Substance | HC50/MBC50 (E. coli) |
| --- | --- |
| GIGKFLHSAKKFGKAFVGEIMNS-NH2 [Magainin II] | 3 |
| Ovispirin: antimicrobial peptide NH2- KNLRRIIRKIIHIIKKYG-COOH (SNAPP conjugate) | 15 |

From patent publication US12281205B2, “Modified antibacterial compositions and methods” (priority 2016, dated 2025)
